Assay results: patent US8492099B2, “Method of measuring enzymatic activity of adsorbed allergenic enzyme” (Alk-Abello A/S, priority 2005, dated 2013)
Marks after values point to notes of the source that are not given here.

What was measured:
[1] = Adsorption of papain to aluminium hydroxide: protein concentration by A280; type: physicochemical
Description: (§1) The aromatic amino acids tryptophan, tyrosine and phenylalanine absorb ultraviolet light. However only tryptophan and tyrosine absorb at 280 nm and tryptophan absorbs 5 times more light than tyrosine. This is due to the […] transition in the indole ring of tryptophan where phenylalanine and tyrosine contains a phenyl group. The absorbance of a protein is linearly correlated with the amount of tryptophan and tyrosine in the protein, the length of the light path and the concentration of protein. This relationship is named Lambert-Beer's law and is given by: A=ε·l·c where A is the absorbance, ε is the molar absorption coefficient for the protein (determined by the amount of tryptophan and tyrosine in the protein) l is the length of the light path and c is the protein concentration. Thus from an absorbance measurement the concentration of protein can be estimated if the molar absorptivity coefficient is known. • Apparatuses • Lambda 800 UV/VIS Spectrometer, PerkinElmer™ • 100-QS, quartz cuvette, path length 1 cm, Hellma® • Materials and Reagents • 50 mM Bis-Tris pH 6.5, Sigma • 50 mM Tris pH 7.0, Sigma • 50 mM phosphate buffer pH 7.0, Merck • 2% Helmanex solution, Hellma Experimental Procedure
The spectrophotometer was turned on 30 min prior to use for a warm up period. […] After cleaning the cuvette 20 μL of sample was transferred to the cuvette and the absorbance was measured. […]

[2] = Adsorption of Der p 1 to aluminium hydroxide: protein concentration by A280; type: physicochemical
Description: as §1
The spectrophotometer was turned on 30 min prior to use for a warm up period. The wavelength of the spectrophotometer was set to 280 nm and the instrument was zeroed to a blank sample containing the matrix of the true sample. The quartz cuvette was washed first with a 2% Helmanex solution and then 4 times with MQ water and afterwards dried with high pressure air. […] After cleaning the cuvette 20 μL of sample was transferred to the cuvette and the absorbance was measured.
After adsorption 500 μL was taken out for further analysis and the rest of the mixture was centrifuged for 10 min at 4000 rpm. […] Con1 was analyzed in the beginning of the experiment and Con2 was analyzed at the end of the 2 hours experiment.
The absorbance measurements were converted to protein concentration by the Lambert-Beer's law using a molar absorption coefficient for Der p 1 of […] as shown in table 8a. […]

| Molecule | Protein concentration (determined by A280) ([1]; Adsorbed (mix 2), determined indirectly, difference between Con and Sup1) [ng/mL] | Protein concentration (determined by A280) ([1]; Control: papain in the absence of aluminium hydroxide) [ng/mL] | Protein concentration (determined by A280) ([2]; Adsorbed (mix 2), determined indirectly, difference between Con1 and Sup) | Protein concentration (determined by A280) ([2]; Control: Der p 1 in the absence of aluminium hydroxide) | Protein concentration (determined by A280) ([2]; Eluted: Der p 1 eluted from aluminium hydroxide with phosphate buffer) |
| --- | --- | --- | --- | --- | --- |
| papain: cysteine protease Car p 1 from the plant Carica papaya, purified, Sigma; chosen as negative control (protein, UniProt P00784 134-345, looked up) Papain: IPEYVDWRQKGAVTPVKNQGSCGSCWAFSAVVTIEGIIKIRTGNLNEYSEQELLDCDRRSYGCNGGYPWSALQLVAQYGIHYRNTYPYEGVQRYCRSREKGPYAAKTDGVRQVQPYNEGALLYSIANQPVSVVLEAAGKDFQLYRGGIFVGPCGNKVDHAVAAVGYGPNYILIKNSWGTGWGENGYIRIKRGTGNSYGVCGLYTSSFYPVKN | 3.0 | 70.8 |  |  |  |
| Der p 1: major house dust mite allergen, family C1 cysteine protease, purified from D. pteronyssinus extract (protein, UniProt P08176 99-320, looked up) Peptidase 1: TNACSINGNAPAEIDLRQMRTVTPIRMQGGCGSCWAFSGVAATESAYLAYRNQSLDLAEQELVDCASQHGCHGDTIPRGIEYIQHNGVVQESYYRYVAREQSCRRPNAQRFGISNYCQIYPPNVNKIREALAQTHSAIAVIIGIKDLDAFRHYDGRTIIQRDNGYQPNYHAVNIVGYSNAQGVDYWIVRNSWDTNWGDNGYGYFAANIDLMMIEEYPYVVIL |  |  | 7.1* | 10.4 | 4.0 |
